{"sequences": {"note": "Amino acid sequences for entries named in this document (tags omitted).", "UniProt O88778": "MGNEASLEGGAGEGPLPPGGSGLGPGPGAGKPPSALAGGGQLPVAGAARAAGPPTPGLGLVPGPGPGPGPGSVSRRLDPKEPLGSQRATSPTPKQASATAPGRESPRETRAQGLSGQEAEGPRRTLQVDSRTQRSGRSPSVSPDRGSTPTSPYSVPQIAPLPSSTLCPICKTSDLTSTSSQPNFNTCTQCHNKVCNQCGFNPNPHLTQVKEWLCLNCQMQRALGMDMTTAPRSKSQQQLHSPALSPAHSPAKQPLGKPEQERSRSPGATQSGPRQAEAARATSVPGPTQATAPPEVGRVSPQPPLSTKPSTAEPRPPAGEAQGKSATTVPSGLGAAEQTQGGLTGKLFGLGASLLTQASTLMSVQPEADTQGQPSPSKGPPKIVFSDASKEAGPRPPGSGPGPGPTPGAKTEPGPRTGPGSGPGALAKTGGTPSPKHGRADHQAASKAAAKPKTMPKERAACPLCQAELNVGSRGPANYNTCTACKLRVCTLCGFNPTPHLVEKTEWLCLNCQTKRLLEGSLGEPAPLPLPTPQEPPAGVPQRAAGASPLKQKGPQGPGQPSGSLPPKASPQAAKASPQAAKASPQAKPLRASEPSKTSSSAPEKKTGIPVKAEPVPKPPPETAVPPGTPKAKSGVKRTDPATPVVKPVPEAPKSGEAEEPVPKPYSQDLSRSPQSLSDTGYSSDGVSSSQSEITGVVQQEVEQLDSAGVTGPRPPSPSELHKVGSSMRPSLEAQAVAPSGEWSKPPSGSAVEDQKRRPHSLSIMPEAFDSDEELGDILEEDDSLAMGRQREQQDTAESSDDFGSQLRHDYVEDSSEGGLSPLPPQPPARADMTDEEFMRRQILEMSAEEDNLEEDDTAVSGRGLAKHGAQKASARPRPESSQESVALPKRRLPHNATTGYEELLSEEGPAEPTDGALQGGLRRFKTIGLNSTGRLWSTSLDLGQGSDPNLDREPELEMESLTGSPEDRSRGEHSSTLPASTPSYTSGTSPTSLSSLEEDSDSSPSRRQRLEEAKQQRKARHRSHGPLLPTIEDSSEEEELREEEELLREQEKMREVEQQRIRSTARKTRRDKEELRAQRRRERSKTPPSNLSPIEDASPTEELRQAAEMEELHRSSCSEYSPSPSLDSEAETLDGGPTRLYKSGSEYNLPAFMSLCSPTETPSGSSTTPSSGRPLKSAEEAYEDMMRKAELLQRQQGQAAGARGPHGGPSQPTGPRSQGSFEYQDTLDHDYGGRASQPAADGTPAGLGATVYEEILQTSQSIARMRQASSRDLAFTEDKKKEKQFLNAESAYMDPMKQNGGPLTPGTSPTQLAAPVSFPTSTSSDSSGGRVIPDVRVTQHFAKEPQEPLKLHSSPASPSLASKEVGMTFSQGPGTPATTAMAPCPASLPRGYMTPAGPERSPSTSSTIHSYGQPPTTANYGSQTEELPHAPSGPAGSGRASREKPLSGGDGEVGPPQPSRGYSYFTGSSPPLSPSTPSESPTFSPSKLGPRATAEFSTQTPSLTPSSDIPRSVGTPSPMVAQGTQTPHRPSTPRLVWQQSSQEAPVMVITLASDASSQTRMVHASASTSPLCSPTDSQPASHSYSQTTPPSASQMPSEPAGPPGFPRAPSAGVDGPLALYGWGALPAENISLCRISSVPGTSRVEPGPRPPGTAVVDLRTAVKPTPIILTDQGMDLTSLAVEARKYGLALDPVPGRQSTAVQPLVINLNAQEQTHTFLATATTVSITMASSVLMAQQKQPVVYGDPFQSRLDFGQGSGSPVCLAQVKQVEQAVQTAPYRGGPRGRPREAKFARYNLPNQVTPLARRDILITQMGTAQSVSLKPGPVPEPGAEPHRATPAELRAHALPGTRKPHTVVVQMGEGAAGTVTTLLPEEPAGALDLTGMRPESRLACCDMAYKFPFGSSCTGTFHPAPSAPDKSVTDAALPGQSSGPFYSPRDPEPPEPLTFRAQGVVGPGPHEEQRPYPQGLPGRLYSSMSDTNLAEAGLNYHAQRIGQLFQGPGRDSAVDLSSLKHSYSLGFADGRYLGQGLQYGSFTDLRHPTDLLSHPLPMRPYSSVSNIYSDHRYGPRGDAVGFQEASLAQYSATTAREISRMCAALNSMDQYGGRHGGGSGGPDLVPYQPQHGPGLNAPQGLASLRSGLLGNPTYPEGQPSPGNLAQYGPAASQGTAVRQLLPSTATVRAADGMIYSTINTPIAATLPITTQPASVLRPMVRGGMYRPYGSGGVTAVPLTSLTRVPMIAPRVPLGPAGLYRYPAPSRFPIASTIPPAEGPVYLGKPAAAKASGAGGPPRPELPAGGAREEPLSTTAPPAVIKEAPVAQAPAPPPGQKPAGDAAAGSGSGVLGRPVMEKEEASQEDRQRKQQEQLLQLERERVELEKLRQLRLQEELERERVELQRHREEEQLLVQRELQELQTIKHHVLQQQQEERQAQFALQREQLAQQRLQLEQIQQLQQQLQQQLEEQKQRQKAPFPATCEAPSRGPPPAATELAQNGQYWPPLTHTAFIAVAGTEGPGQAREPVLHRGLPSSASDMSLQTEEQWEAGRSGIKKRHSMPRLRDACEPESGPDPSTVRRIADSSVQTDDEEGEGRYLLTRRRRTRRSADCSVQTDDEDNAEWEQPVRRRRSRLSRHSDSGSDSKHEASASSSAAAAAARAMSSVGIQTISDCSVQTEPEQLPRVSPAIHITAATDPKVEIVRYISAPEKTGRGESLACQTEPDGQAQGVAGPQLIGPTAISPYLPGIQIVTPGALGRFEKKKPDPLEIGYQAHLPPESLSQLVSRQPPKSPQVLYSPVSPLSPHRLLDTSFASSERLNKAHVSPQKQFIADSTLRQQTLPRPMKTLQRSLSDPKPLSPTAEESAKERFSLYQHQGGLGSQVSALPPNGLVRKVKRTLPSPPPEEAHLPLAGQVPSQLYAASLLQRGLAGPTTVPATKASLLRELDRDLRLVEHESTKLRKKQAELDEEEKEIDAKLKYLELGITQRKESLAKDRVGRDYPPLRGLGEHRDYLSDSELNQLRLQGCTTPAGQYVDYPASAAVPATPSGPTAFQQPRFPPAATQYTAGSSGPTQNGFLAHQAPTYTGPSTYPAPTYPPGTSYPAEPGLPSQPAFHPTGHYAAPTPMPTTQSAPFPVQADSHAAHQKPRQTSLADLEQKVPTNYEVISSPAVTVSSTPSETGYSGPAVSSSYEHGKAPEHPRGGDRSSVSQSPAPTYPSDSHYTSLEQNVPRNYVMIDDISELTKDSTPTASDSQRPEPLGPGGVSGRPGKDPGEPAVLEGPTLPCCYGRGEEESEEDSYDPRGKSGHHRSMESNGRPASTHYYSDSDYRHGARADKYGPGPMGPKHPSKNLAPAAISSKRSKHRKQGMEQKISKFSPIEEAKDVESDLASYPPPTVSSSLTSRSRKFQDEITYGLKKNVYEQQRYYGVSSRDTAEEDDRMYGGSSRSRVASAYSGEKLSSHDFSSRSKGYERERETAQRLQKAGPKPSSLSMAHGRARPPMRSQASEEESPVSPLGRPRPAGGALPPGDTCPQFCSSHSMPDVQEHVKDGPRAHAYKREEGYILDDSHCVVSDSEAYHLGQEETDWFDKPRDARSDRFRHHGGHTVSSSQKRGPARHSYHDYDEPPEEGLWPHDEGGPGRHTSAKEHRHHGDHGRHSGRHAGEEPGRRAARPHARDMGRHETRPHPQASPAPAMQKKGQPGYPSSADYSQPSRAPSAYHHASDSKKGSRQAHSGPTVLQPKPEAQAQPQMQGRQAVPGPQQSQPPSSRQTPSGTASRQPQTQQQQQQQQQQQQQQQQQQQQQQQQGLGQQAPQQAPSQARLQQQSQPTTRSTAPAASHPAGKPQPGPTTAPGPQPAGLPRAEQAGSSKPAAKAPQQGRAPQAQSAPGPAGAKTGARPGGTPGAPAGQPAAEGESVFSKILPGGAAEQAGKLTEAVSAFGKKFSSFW"}, "source": "paper PMC7034063", "molecules": {"B1": {"name": "Phospholipase D1 (PLD1) (enzyme, UniProt P70496 1-1074)", "chain": "MSLRSEARVNTSTLQKIAADMSNLIENLDTRELHFEGEEVEYDASPGDPTAQEACIPFSSIYNTQGFKEPNIQIYLSGCPVKAQVLEVERFTSTSRMPSVNLYTIELTHGEFTWQVKRKFKHFQEFHRELLKYKAFIRIPIPTKRHTFRRQNVKEEPREMPSLPRSSENAIQEEQFFGRRKQLEDYLTKILKMPMYRNYHATTEFLDVSQLSFIHDLGPKGLEGMIMKRSGGHRIPGVNCCGHGRACYRWSKRWLIVKDSFLLYMKPDSGAIAFVLLVDKEFRIKVGKKETETKYGLRIDNLSRTLILKCNSYRHARWWGGAIEEFIQKHGTDFLKDHRFGSYAAVHENILAKWYVNAKGYFEDIANAMEGATEEIFITDWWLSPEIFLKRPVVEGNRWRLDCILKRKAQQGVRIFIMLYKEVELALGINSEYTKRTLMRLHPNIKVMRHPDHVSSSVYLWAHHEKLVIIDQSVAFVGGIDLAYGRWDDNEHRLTDVGSVKRVTSGQSLGSLTAASVESMESLSLKDKHQSHKNEPVLKSVNDTDMKLKGIGKSRKFSKFSLYRQLHRRNLHNSDSISSVDSASSYFNHYRSHQNLIHGIKPHLKLFRPSSESEQGLTRHSADTGSIRSVQTGVGELHGETRFWHGKDYCNFVFKDWVQLDKPFADFIDRYSTPRMPWHDIGSVVHGKAARDVARHFIQRWNFTKIMKPKYRSLSYPFLLPKSQATAHELRYQVPGAVHAKAQLLRSAADWSAGIKHHEESIHAAYTHVIENSKHYIYIENQFFISCADDKVVFNKVGNAIAQRILKAHREGQRYRVYIVIPLLPGFEGDISTGGGNALQAIMHFNYRTMCRGESSILEQLKPELGNKWINYISFCGLRTHAELEGNLVTELIYVHSKLLIADDNTVIIGSANINDRSMLGKRDSEMAVIVQDTETVPSVMDGKEYQAGRFAQGLRLECFRLVLGYLSDPSEDIQDPVSDKFFKEIWVSTAARNATIYDKVFRCLPNDEVHNLIQLRDFINKPILAKEDRLRAEEELRKIRGFLVQFPFYFLSEENLLPSVGTKEAIVPMEVWT"}}, "key": {"[1]": {"target": "EGFP-CtBP1 (EGFP-tagged C-terminal binding protein 1, CtBP1-S) (UniProt Q9Z2F5)", "assay": "co-IP; as a1, but the neurons were treated with the Pak1 inhibitor IPA3 (50 μM, 1 h) before lysis"}, "[2]": {"target": "EGFP-CtBP1 (EGFP-tagged C-terminal binding protein 1, CtBP1-S) (UniProt Q9Z2F5)", "assay": "co-IP; basal state; EGFP-CtBP1 precipitated with MicroMACS anti-GFP MicroBeads from lysates of cortical neurons (DIV16); lysis in 10mM Tris-HCl, 150mM NaCl, 2% SDS, 1% deoxycholate, 1% Triton X-100 with protease inhibitors and PhosStop; western blot"}, "[3]": {"target": "EGFP-CtBP1 (EGFP-tagged C-terminal binding protein 1, CtBP1-S) (UniProt Q9Z2F5)", "assay": "condition: only neurons treated with the Pak1 inhibitor IPA3 (50 μM, 1 h); co-IP; as a1, but the neurons were treated with the Pak1 inhibitor IPA3 (50 μM, 1 h) before lysis"}, "[4]": {"target": "EGFP-CtBP1 (EGFP-tagged C-terminal binding protein 1, CtBP1-S) (UniProt Q9Z2F5)", "assay": "co-IP; basal state; EGFP-CtBP1 precipitated with MicroMACS anti-GFP MicroBeads from lysates of cortical neurons (DIV16); lysis in 10mM Tris-HCl, 150mM NaCl, 2% SDS, 1% deoxycholate, 1% Triton X-100 with protease inhibitors and PhosStop; western blot", "remark": "listed apart in the source"}}, "note": "Results are given in words; binding and its absence hold for the method and conditions named. In cells and extracts the contact can be indirect. Some entries that bind do so weakly or less than the wild type.", "data": [{"molecule": "bassoon (Bsn) (from UniProt O88778 1-3938)", "values": [{"measurement": "binding", "setting": "[1]", "value": "binds"}, {"measurement": "binding", "setting": "[2]", "value": "binds weakly"}]}, {"molecule": "B1", "values": [{"measurement": "binding", "setting": "[3]", "value": "no binding"}, {"measurement": "binding", "setting": "[4]", "value": "binds"}]}]}
